This note sets out measurements from paper PMC8511950.

The chains behind the UniProt entries cited, without tags or fusion partners.
UniProt P16370: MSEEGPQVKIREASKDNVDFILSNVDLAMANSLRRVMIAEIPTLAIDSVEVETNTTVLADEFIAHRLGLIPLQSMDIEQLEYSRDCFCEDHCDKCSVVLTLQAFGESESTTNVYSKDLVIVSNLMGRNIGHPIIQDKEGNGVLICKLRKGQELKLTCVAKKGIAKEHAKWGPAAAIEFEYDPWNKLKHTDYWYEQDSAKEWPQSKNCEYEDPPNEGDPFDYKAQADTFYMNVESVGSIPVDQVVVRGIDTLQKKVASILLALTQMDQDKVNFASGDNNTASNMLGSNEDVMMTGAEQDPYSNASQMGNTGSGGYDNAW
UniProt P32783: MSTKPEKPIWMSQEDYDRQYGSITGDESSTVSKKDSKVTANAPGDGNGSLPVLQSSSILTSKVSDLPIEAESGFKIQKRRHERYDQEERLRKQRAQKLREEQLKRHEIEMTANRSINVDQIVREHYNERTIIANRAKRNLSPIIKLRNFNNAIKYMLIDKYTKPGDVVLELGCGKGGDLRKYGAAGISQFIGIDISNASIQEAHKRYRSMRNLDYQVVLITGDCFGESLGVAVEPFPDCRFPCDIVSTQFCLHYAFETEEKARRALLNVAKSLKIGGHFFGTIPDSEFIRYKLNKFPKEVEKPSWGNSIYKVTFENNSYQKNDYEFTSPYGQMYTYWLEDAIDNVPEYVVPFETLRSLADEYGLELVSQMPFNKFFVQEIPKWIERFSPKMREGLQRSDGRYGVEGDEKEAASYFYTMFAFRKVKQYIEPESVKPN
UniProt Q01159: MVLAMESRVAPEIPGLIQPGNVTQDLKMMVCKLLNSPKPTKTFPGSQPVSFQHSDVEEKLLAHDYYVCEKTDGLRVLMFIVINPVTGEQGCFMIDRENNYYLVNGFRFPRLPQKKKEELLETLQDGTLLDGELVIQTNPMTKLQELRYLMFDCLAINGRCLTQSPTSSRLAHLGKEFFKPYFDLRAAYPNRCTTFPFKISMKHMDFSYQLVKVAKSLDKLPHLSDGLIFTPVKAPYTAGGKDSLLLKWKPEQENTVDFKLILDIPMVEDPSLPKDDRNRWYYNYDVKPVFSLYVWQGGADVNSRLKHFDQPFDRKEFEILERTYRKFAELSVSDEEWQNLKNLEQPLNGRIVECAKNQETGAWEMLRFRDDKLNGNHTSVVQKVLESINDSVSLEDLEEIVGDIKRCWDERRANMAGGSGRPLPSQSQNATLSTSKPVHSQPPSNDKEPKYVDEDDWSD
UniProt P24783: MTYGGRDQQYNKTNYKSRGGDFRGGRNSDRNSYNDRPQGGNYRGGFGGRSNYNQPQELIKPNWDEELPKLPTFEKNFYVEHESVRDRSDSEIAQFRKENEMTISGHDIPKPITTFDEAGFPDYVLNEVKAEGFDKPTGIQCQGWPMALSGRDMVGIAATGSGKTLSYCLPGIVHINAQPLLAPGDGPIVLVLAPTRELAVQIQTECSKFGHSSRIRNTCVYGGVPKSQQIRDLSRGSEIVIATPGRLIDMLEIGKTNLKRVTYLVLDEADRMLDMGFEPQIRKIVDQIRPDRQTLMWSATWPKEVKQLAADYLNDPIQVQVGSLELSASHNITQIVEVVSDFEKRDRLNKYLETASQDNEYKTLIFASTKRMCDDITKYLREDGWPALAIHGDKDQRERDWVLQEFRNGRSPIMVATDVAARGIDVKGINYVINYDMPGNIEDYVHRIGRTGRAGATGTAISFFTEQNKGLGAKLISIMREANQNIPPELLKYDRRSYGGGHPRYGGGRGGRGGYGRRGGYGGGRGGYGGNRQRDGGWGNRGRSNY
UniProt P15646: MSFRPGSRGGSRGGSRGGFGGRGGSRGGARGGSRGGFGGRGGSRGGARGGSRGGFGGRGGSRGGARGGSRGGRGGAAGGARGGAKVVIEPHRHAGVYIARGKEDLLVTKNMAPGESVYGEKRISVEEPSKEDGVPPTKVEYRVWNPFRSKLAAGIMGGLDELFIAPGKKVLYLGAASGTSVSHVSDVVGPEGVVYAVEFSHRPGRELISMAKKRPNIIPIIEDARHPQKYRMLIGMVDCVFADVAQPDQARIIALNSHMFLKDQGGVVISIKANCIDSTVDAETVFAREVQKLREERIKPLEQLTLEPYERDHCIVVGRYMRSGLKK
UniProt Q04373: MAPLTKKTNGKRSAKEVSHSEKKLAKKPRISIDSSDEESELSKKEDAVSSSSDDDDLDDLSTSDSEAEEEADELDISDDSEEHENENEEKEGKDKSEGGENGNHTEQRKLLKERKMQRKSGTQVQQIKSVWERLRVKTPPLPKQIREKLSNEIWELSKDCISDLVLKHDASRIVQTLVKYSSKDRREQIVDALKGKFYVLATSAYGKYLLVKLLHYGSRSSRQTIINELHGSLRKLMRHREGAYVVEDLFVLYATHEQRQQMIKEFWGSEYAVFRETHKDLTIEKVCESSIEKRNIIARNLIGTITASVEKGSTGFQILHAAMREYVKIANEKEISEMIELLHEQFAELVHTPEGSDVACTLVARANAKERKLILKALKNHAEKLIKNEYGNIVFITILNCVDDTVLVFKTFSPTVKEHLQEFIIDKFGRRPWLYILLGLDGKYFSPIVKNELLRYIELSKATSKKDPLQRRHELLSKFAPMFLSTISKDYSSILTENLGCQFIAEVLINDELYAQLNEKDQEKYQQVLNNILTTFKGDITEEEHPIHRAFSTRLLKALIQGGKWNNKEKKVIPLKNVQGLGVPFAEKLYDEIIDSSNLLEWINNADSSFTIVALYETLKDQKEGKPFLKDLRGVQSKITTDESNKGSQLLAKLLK
UniProt P38811: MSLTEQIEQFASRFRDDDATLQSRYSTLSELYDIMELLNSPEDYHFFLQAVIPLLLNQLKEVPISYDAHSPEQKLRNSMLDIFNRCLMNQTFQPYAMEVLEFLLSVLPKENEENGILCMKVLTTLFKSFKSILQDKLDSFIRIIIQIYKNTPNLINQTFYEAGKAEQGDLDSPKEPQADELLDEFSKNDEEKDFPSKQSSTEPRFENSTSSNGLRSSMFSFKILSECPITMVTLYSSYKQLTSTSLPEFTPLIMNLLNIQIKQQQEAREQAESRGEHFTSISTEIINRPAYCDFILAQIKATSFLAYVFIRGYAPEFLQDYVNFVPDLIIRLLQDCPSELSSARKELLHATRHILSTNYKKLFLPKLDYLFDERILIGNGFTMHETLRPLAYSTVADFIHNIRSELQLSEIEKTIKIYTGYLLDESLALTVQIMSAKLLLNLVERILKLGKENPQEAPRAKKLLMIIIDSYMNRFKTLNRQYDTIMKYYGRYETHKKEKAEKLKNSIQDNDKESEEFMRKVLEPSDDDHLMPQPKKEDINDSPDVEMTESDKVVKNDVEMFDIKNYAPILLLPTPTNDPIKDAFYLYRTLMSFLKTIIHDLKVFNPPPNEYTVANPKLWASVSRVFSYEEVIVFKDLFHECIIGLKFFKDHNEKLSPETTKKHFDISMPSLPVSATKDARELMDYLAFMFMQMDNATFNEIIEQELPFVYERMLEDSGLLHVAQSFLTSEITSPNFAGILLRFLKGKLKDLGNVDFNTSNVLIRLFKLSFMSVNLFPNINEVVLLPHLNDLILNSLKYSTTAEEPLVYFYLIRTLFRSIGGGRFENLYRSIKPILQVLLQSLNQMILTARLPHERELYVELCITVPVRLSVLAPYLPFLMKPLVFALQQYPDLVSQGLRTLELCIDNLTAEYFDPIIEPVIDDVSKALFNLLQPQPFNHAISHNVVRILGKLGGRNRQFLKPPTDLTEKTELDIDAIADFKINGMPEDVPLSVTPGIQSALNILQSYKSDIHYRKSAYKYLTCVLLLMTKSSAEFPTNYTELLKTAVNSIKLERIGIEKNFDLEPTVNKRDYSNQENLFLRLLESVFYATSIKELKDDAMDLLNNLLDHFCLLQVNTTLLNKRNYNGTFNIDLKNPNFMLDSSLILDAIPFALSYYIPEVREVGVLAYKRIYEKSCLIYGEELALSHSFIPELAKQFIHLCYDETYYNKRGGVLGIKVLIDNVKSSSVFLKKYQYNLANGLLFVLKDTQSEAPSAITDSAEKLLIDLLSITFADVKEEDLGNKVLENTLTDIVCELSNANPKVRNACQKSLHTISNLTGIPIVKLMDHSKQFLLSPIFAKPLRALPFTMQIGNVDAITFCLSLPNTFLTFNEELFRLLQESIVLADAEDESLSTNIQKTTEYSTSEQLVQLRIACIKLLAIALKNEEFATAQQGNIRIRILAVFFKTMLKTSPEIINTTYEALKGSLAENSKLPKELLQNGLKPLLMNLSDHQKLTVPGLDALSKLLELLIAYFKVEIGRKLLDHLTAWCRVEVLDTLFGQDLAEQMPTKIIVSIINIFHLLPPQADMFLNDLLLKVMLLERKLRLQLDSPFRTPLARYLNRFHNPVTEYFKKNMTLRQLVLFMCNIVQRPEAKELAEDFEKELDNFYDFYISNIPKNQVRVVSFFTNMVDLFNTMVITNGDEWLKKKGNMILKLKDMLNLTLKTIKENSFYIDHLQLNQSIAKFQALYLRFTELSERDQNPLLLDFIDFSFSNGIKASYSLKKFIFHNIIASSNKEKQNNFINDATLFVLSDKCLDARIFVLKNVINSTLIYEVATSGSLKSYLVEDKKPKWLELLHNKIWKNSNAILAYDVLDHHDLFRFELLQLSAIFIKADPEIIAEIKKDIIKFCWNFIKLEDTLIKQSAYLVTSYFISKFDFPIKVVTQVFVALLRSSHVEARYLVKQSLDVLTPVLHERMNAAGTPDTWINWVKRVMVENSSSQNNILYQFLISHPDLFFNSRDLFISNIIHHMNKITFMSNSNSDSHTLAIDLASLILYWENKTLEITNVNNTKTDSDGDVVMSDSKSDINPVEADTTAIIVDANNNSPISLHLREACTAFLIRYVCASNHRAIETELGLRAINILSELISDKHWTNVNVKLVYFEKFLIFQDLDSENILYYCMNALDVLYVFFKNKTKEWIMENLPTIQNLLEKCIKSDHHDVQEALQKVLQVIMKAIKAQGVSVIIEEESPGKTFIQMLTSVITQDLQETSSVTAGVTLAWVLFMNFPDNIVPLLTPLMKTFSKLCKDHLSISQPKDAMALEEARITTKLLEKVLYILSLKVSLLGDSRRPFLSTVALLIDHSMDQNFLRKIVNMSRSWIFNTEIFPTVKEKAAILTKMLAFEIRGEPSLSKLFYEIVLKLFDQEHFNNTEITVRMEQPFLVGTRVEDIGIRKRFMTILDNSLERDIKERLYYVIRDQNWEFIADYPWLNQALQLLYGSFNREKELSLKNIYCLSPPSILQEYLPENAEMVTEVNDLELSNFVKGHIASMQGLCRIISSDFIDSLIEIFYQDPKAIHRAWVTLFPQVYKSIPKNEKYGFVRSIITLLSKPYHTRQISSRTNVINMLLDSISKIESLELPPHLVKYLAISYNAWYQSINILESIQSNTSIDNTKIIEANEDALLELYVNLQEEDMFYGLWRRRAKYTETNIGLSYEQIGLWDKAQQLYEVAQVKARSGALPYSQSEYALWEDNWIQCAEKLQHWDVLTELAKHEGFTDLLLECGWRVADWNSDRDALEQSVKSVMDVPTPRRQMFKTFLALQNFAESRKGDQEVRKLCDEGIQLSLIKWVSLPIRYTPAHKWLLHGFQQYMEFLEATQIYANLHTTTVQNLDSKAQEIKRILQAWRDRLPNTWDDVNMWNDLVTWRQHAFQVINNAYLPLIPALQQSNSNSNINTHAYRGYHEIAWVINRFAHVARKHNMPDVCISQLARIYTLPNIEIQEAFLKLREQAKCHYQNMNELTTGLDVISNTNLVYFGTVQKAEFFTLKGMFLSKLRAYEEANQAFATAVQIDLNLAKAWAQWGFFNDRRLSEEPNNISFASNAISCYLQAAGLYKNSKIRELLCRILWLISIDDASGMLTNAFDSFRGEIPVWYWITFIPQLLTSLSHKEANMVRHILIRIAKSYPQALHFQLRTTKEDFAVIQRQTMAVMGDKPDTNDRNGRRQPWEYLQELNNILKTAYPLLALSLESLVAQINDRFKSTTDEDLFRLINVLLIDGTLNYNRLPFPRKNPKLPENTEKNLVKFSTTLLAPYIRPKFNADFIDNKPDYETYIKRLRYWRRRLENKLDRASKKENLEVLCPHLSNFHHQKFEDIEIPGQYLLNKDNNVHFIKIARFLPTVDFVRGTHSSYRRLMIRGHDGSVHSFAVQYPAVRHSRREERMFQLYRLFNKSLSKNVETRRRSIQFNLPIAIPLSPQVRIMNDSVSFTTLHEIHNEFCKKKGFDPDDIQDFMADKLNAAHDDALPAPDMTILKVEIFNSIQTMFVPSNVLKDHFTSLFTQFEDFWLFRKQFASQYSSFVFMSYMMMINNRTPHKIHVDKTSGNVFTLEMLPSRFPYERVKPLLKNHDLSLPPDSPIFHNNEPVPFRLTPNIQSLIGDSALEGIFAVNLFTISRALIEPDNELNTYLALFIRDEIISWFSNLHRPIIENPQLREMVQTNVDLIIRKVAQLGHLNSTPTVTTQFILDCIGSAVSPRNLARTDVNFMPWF

Results are given in words; binding and its absence hold for the method and conditions named. In cells and extracts the contact can be indirect. These calls come from enrichment with a bait or labelling near it, and not all partners need be listed.

For this test, the target named is Rpb3 with C-terminal BioTAP tag (S. cerevisiae) (UniProt P16370). The test can be described thus: affinity purification with mass spectrometry; BioTAP-XL two-step purification of Rpb3-BioTAP (IgG beads, then streptavidin agarose) from 1% formaldehyde-cross-linked wildtype and spt6-1004 cells shifted to 37 °C for 80 min; on-bead trypsin digestion, TMT labelling, MS3 quantification; untagged wildtype and spt6-1004 cells as controls; FDR cutoff 0.05.
Take “Abd1 (from UniProt P32783 1-436) (enzyme)”: the binding entry is listed as “binds”. As for “Ceg1 (from UniProt Q01159 1-459) (enzyme)”, the binding result is “binds”. With Chd1 (from UniProt P32657 1-1468) the entry was “binds”. With Dbp2 (from UniProt P24783 1-546) the entry was “binds”; with Nop1 (from UniProt P15646 1-327), “binds”. With Puf6 (from UniProt Q04373 1-656) the entry was “binds”; with Rrp5 (from UniProt Q05022 1-1729), “binds”; with Rtf1 (from UniProt P53064 1-558), “binds”. Regarding Tra1 (from UniProt P38811 1-3744), the binding result was “binds”.
